Data as given in the supplement of paper PMC10849652.
Some of the results follow.

Amino acid sequences for entries named in this document (tags omitted). A change or cut given only in a name is not applied to a line headed by its entry.
UniProt Q9UBL3, whole entry, looked up: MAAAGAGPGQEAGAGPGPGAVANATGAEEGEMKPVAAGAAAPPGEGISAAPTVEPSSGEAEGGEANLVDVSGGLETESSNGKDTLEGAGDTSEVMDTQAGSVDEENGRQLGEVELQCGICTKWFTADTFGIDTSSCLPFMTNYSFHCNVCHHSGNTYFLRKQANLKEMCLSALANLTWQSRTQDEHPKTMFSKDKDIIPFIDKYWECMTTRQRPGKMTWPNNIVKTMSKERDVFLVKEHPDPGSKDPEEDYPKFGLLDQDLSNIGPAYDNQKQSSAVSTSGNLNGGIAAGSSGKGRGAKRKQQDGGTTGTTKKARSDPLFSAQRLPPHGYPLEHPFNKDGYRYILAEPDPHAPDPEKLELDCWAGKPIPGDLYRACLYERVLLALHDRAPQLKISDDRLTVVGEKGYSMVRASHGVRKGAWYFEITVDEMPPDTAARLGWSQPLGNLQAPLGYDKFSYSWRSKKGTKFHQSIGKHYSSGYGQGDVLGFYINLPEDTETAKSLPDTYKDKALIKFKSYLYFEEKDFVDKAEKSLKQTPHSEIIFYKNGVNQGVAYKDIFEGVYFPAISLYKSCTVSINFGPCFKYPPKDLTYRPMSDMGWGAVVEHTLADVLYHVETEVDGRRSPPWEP
UniProt P36543, whole entry, looked up: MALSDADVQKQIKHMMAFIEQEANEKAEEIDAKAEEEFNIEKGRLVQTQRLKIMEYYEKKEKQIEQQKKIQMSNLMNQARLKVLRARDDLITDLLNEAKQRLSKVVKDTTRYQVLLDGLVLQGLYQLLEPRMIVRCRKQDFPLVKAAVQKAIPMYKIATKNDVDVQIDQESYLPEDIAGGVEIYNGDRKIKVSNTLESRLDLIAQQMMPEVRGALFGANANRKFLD
UniProt P30049: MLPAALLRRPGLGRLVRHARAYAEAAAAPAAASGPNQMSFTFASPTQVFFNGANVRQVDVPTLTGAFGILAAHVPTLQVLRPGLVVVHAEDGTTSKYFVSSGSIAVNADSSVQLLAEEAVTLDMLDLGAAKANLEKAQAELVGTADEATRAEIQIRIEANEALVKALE
UniProt Q8NB49: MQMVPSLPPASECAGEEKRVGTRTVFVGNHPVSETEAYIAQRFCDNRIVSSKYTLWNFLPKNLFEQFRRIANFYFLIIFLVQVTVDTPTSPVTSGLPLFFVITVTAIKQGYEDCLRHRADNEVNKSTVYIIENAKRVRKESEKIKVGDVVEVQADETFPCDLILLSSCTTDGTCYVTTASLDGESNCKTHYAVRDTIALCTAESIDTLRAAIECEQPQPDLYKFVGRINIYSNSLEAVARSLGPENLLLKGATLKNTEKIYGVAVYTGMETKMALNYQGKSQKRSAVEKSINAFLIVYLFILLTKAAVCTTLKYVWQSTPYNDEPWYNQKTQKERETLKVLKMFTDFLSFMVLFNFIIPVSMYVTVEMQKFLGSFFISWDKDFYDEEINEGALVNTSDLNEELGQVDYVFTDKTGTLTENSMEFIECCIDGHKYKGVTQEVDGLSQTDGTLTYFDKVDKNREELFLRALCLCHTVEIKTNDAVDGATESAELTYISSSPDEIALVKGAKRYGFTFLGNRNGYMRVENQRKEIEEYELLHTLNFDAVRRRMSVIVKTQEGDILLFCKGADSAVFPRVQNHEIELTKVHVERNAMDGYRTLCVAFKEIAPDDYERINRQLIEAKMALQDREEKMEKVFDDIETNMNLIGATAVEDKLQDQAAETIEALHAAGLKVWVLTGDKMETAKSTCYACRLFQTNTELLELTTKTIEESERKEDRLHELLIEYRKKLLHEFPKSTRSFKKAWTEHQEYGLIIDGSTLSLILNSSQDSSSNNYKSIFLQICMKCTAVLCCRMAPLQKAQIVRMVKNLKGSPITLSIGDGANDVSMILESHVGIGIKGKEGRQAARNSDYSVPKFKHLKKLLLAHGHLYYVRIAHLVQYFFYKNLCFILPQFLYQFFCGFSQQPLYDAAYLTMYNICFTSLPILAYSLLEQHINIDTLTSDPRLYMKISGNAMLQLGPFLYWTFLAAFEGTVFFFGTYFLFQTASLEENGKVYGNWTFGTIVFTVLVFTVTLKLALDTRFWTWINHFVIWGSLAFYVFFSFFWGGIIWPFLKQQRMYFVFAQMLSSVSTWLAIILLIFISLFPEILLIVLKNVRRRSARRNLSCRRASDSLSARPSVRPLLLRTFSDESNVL
UniProt P56385: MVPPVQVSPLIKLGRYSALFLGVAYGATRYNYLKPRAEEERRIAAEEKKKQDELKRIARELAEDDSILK
UniProt Q676U5: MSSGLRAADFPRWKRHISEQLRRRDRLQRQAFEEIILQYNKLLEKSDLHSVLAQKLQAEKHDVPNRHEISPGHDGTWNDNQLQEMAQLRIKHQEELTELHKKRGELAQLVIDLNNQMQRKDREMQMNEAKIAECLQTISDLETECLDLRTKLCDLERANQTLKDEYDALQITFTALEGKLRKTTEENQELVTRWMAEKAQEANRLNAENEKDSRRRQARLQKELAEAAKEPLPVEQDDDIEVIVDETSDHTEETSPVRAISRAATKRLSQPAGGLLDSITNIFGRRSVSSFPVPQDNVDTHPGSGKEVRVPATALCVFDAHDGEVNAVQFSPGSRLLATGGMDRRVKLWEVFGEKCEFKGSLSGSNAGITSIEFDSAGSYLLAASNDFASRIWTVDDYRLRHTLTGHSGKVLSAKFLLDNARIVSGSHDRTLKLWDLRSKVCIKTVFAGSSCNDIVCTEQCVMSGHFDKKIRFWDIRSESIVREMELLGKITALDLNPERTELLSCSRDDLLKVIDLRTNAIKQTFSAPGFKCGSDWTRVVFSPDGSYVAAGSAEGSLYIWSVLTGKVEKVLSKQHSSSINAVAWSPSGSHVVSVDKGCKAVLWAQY
UniProt P20020: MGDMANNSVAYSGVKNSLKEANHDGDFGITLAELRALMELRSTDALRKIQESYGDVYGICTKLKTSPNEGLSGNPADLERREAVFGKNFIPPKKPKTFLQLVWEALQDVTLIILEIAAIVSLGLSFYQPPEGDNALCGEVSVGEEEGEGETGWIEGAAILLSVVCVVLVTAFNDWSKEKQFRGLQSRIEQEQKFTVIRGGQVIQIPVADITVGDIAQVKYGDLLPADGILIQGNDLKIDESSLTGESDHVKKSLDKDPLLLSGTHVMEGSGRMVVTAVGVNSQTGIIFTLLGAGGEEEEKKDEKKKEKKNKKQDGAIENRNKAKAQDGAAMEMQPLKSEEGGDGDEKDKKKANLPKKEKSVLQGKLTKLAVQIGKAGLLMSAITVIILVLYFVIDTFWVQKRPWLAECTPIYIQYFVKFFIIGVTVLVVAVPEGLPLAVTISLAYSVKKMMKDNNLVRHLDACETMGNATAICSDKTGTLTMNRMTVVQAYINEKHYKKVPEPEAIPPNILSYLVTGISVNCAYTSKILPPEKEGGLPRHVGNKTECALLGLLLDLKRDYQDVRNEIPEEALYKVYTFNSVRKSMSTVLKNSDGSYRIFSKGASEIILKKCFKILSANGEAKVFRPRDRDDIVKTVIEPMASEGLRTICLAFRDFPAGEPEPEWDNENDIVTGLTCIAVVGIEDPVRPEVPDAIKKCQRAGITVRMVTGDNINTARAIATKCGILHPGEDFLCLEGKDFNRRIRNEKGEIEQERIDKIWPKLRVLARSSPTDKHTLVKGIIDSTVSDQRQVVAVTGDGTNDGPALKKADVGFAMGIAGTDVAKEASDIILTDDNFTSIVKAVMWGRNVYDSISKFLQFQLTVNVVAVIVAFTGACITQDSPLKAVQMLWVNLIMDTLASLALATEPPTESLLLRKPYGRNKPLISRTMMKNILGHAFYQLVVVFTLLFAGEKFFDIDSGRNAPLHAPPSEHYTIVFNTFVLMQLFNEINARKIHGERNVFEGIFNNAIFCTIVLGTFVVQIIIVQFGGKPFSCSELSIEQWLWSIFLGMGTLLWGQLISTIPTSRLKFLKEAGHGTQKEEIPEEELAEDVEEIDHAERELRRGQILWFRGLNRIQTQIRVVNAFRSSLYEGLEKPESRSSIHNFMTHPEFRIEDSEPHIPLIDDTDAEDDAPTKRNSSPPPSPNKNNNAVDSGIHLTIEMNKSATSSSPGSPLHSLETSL
UniProt Q9Y679: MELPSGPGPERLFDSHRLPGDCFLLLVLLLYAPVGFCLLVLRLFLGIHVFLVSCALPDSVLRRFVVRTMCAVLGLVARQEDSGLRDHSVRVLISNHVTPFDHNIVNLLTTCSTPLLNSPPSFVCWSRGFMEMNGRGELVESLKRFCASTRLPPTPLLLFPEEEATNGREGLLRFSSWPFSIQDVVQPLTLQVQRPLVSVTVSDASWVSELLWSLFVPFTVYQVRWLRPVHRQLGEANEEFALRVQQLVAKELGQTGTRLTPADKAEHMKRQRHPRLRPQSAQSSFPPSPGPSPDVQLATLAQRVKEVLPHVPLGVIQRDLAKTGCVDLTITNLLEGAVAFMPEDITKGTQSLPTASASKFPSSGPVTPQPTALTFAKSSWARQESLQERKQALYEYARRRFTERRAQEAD
UniProt Q93050, whole entry, looked up: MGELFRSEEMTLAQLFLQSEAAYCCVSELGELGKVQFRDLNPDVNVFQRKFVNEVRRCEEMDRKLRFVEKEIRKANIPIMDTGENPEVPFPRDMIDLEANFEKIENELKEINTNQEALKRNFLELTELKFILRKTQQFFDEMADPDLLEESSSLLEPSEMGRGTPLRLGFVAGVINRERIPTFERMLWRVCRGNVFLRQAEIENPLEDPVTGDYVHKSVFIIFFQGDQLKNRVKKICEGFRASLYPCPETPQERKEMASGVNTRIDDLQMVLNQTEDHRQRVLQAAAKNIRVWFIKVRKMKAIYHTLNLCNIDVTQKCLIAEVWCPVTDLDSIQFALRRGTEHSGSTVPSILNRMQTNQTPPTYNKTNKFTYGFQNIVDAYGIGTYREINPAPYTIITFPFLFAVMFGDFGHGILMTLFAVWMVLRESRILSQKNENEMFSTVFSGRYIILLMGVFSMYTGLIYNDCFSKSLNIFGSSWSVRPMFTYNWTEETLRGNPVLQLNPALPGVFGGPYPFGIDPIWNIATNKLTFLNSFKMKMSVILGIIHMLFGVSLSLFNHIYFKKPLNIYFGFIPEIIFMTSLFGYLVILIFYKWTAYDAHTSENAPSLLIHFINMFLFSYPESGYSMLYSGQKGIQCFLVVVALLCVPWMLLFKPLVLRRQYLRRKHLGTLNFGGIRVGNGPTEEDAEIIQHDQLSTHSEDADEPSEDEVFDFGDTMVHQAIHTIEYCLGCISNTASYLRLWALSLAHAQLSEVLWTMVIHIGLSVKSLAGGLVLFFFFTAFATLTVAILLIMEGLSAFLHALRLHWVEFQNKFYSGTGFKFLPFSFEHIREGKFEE
UniProt P25311: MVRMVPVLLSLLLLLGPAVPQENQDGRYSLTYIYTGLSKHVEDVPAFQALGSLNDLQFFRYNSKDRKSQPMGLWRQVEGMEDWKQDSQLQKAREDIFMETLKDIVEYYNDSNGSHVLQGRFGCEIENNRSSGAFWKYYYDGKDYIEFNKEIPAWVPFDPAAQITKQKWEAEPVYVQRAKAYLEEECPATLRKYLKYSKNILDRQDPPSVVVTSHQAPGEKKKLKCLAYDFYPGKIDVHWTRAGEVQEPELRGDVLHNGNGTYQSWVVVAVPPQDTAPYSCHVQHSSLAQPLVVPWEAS
UniProt Q9BSB4: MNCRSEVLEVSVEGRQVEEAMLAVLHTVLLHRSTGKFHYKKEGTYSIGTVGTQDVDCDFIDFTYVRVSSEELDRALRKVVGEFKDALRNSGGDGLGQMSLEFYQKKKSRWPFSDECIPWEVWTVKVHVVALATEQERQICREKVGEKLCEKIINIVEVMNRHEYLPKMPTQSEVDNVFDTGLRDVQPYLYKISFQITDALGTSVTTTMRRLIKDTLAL
UniProt P61769, whole entry, looked up: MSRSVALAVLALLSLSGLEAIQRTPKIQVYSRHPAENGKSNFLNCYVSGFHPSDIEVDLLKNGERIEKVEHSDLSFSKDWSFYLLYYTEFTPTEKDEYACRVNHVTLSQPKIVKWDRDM
UniProt P61421, whole entry, looked up: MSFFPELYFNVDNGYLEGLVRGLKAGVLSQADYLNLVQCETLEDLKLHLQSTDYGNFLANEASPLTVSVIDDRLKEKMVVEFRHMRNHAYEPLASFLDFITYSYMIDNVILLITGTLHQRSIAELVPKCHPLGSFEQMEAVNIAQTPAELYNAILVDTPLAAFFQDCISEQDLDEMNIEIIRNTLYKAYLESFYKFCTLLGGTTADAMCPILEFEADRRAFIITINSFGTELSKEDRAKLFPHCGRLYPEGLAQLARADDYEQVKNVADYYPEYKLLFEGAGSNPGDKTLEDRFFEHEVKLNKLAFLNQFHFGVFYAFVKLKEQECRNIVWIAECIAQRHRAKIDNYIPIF
UniProt Q9Y6H3: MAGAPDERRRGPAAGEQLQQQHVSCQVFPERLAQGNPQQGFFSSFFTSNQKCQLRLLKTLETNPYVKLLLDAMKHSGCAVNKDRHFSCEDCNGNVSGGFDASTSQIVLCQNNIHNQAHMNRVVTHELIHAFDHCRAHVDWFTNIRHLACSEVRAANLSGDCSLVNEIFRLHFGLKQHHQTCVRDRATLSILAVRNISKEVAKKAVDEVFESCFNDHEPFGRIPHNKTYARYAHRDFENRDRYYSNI

What was measured:
Assay in all cases: log2 fold change, soluble protein after heating vs DMSO (PISA); higher = thermal stabilisation; K562 lysate, 10 uM; active = over 0.2 and 3.5 SD of the protein, either way, in both replicates (recomputed)
vemurafenib = compound: CCCS(=O)(=O)Nc1ccc(F)c(C(=O)c2c[nH]c3ncc(-c4ccc(Cl)cc4)cc23)c1F [vemurafenib]
In short: (§1)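 Dounce homogenisation of K562 pellets in PBS pH 7.4 with 1 mM MgCl2 produced a crude extract, used at 1 mg/mL protein. Exposure to 10 μM compound lasted 30 min, and aliquots were then heated for 3 min across 48°C-58°C, pooled and brought to 0.5% NP-40 at 4°C. The supernatant after 21,000xg for 90 min was quantified by TMTpro 16plex LC-MS/MS with channel sums equalised. Duplicate values are given as log-two fold change in thermal stability relative to solvent controls.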

[1] = compound: CCCS(=O)(=O)Nc1ccc(F)c(C(=O)c2c[nH]c3ncc(Cl)cc23)c1F
In short: as §1

barasertib = compound: CCN(CCCOc1ccc2c(Nc3cc(CC(=O)Nc4cccc(F)c4)[nH]n3)ncnc2c1)CCOP(=O)(O)O [barasertib]
In short: as §1

[2] = compound: CC[C@@H]1C(=O)N(C)c2cnc(Nc3ccc(C(=O)NC4CCN(C)CC4)cc3OC)nc2N1C1CCCC1
In short: as §1

volasertib = compound: CC[C@@H]1C(=O)N(C)c2cnc(Nc3ccc(C(=O)N[C@H]4CC[C@H](N5CCN(CC6CC6)CC5)CC4)cc3OC)nc2N1C(C)C [volasertib]
In short: as §1

[3] = compound: CCn1c(C(=O)N(C2CC2)C2CC2)cc2c3c(ncn3C)c(Nc3cc(C)n(C)n3)nc21
In short: as §1

[4] = compound: CCn1cc(-c2ccnc3[nH]c(-c4cccc(CN(C)C)c4)cc23)c(-c2ccc(NC(=O)N(C)C)cc2)n1
In short: as §1

[5] = compound: CN1CCC(CNc2ccc3ncc(-c4cccc(OC(F)(F)F)c4)n3n2)CC1
In short: as §1

saracatinib = compound: CN1CCN(CCOc2cc(OC3CCOCC3)c3c(Nc4c(Cl)ccc5c4OCO5)ncnc3c2)CC1 [saracatinib]
In short: as §1

sotrastaurin = compound: CN1CCN(c2nc(C3=C(c4c[nH]c5ccccc45)C(=O)NC3=O)c3ccccc3n2)CC1 [sotrastaurin]
In short: as §1

alvocidib = compound: CN1CC[C@H](c2c(O)cc(O)c3c(=O)cc(-c4ccccc4Cl)oc23)[C@H](O)C1 [alvocidib]
In short: as §1

Tubastatin A = compound: CN1CCc2c(c3ccccc3n2Cc2ccc(C(=O)NO)cc2)C1 [Tubastatin A]
In short: as §1

[6] = compound: CNC(=O)C1=CC=CC=C1NC2=NC(=NC=C2Cl)NC3=C(C=C(C=C3)N4CCOCC4)OC
In short: as §1

defactinib = compound: CNC(=O)c1ccc(Nc2ncc(C(F)(F)F)c(NCc3nccnc3N(C)S(C)(=O)=O)n2)cc1 [defactinib]
In short: as §1

[7] = compound: CNc1nc(-c2ccc3c(N)n[nH]c3c2)cc(N2C[C@@H](C(=O)NC3CCCCC3)CC[C@H]2C)n1
In short: as §1

encorafenib = compound: COC(=O)N[C@@H](C)CNc1nccc(-c2cn(C(C)C)nc2-c2cc(Cl)cc(NS(C)(=O)=O)c2F)n1 [encorafenib]
In short: as §1

[8] = compound: COC(=O)[C@H](CCSC)NC(=O)C1=C(C=C(C=C1)NC[C@H](CS)N)C2=CC=CC=C2
In short: as §1

alisertib = compound: COc1cc(Nc2ncc3c(n2)-c2ccc(Cl)cc2C(c2c(F)cccc2OC)=NC3)ccc1C(=O)O [alisertib]
In short: as §1

[9] = compound: COc1cc2nc(-c3cc(F)ccc3O)nc(N[C@@H]3CNC[C@H]3C(C)(C)O)c2cc1OC
In short: as §1

gefitinib = compound: COc1cc2ncnc(Nc3ccc(F)c(Cl)c3)c2cc1OCCCN1CCOCC1 [gefitinib]
In short: as §1

Measured: log2 fold change

ASH2L (UniProt Q9UBL3)
inactive: vemurafenib 0.003 | [1] -0.003 | barasertib 0.008 | [2] -0.001 | volasertib -0.009 | [3] 0.038 | [4] -0.051 | [5] 0.029 | saracatinib 0.002 | sotrastaurin 0.015 | alvocidib -0.004 | Tubastatin A -0.06 | [6] 0.03 | defactinib 0.006 | [7] 0.016 | encorafenib -0.026 | [8] 0.027 | alisertib -0.001 | [9] -0.042 | gefitinib -0.017

ATP6V1E1 (UniProt P36543)
inactive: vemurafenib -0.136 | [1] -0.006 | barasertib -0.042 | [2] 0.03 | volasertib 0.009 | [3] -0.011 | [4] -0.2 | [5] 0.116 | saracatinib -0.018 | sotrastaurin -0.011 | alvocidib -0.053 | Tubastatin A 0.03 | [6] -0.034 | defactinib 0.116 | [7] 0.011 | encorafenib -0.022 | [8] 0.04 | alisertib 0.02 | [9] 0.007 | gefitinib 0.048

ATP5F1D (UniProt P30049)
inactive: vemurafenib 0.08 | [1] -0.032 | barasertib 0.188 | [2] -0.001 | volasertib 0.028 | [3] 0.037 | [4] -0.101 | [5] -0.008 | saracatinib -0.04 | sotrastaurin -0.003 | alvocidib 0.027 | Tubastatin A 0.085 | [6] -0.027 | defactinib -0.035 | [7] 0.027 | encorafenib -0.071 | [8] -0.018 | alisertib -0.018 | [9] 0.003 | gefitinib -0.01

ATP11C (UniProt Q8NB49)
inactive: vemurafenib 0.04 | [1] 0.006 | barasertib 0.038 | [2] 0.053 | volasertib -0.023 | [3] -0.042 | [4] -0.043 | [5] 0.035 | saracatinib 0.029 | sotrastaurin 0.022 | alvocidib -0.033 | Tubastatin A 0.001 | [6] -0.043 | defactinib -0.022 | [7] 0 | encorafenib -0.048 | [8] -0.01 | alisertib -0.023 | [9] 0.006 | gefitinib 0.002

AURKAIP1 (UniProt Q9NWT8)
inactive: vemurafenib 0.043 | [1] -0.124 | barasertib 0.055 | [2] 0.071 | volasertib 0.043 | [3] -0.129 | [4] -0.027 | [5] 0.129 | saracatinib 0.023 | sotrastaurin -0.055 | alvocidib 0.026 | Tubastatin A 0.219 | [6] -0.02 | defactinib 0.083 | [7] 0.072 | encorafenib 0.077 | [8] -0.057 | alisertib 0.067 | [9] 0.098 | gefitinib -0.032

ATP5ME (UniProt P56385)
inactive: vemurafenib 0.031 | [1] -0.011 | barasertib 0.007 | [2] 0.021 | volasertib 0.007 | [3] -0.002 | [4] -0.044 | [5] 0.033 | saracatinib -0.009 | sotrastaurin 0 | alvocidib 0.004 | Tubastatin A 0.065 | [6] 0.015 | defactinib 0.032 | [7] 0.012 | encorafenib 0.018 | [8] 0.006 | alisertib 0.042 | [9] 0.013 | gefitinib -0.037

ATM (UniProt Q13315)
inactive: vemurafenib -0.063 | [1] -0.004 | barasertib 0.041 | [2] 0.005 | volasertib -0.078 | [3] 0.021 | [4] -0.089 | [5] 0.071 | saracatinib -0.011 | sotrastaurin 0.032 | alvocidib -0.048 | Tubastatin A 0.013 | [6] 0.013 | defactinib 0.105 | [7] -0.005 | encorafenib -0.031 | [8] 0.087 | alisertib -0.01 | [9] 0.078 | gefitinib 0.022

Two records drawn at random from the list so far:
ATP5ME (UniProt P56385)
inactive: vemurafenib 0.031 | [1] -0.011 | barasertib 0.007 | [2] 0.021 | volasertib 0.007 | [3] -0.002 | [4] -0.044 | [5] 0.033 | saracatinib -0.009 | sotrastaurin 0 | alvocidib 0.004 | Tubastatin A 0.065 | [6] 0.015 | defactinib 0.032 | [7] 0.012 | encorafenib 0.018 | [8] 0.006 | alisertib 0.042 | [9] 0.013 | gefitinib -0.037

ATM (UniProt Q13315)
inactive: vemurafenib -0.063 | [1] -0.004 | barasertib 0.041 | [2] 0.005 | volasertib -0.078 | [3] 0.021 | [4] -0.089 | [5] 0.071 | saracatinib -0.011 | sotrastaurin 0.032 | alvocidib -0.048 | Tubastatin A 0.013 | [6] 0.013 | defactinib 0.105 | [7] -0.005 | encorafenib -0.031 | [8] 0.087 | alisertib -0.01 | [9] 0.078 | gefitinib 0.022

The listing continues:

ATG16L1 (UniProt Q676U5)
inactive: vemurafenib 0.008 | [1] 0.009 | barasertib 0.002 | [2] 0.01 | volasertib 0.025 | [3] 0.015 | [4] 0.054 | [5] 0.027 | saracatinib 0.01 | sotrastaurin 0.026 | alvocidib 0 | Tubastatin A 0.034 | [6] -0.003 | defactinib -0.011 | [7] 0.022 | encorafenib -0.001 | [8] 0.025 | alisertib -0.009 | [9] -0.007 | gefitinib 0.021

ATP2B1 isoform 1 (UniProt P20020)
inactive: vemurafenib 0.024 | [1] 0.004 | barasertib 0.056 | [2] -0.015 | volasertib -0.016 | [3] -0.021 | [4] -0.056 | [5] 0.051 | saracatinib 0.006 | sotrastaurin 0.025 | alvocidib -0.011 | Tubastatin A 0.036 | [6] -0.004 | defactinib -0.055 | [7] 0.022 | encorafenib 0.027 | [8] 0.03 | alisertib -0.005 | [9] 0.018 | gefitinib 0.03

AUP1 (UniProt Q9Y679)
inactive: vemurafenib 0.116 | [1] 0.034 | barasertib 0.008 | [2] -0.014 | volasertib -0.023 | [3] -0.02 | [4] -0.035 | [5] -0.086 | saracatinib 0.069 | sotrastaurin -0.015 | alvocidib 0.033 | Tubastatin A 0.215 | [6] -0.003 | defactinib -0.011 | [7] 0 | encorafenib 0.032 | [8] -0.109 | alisertib 0.017 | [9] -0.001 | gefitinib -0.033

ATP6V0A1 isoform 3 (UniProt Q93050)
inactive: vemurafenib 0.019 | [1] -0.004 | barasertib 0.023 | [2] -0.02 | volasertib 0.011 | [3] -0.013 | [4] -0.071 | [5] 0.095 | saracatinib -0.031 | sotrastaurin -0.045 | alvocidib -0.03 | Tubastatin A 0.086 | [6] -0.005 | defactinib 0.004 | [7] 0.004 | encorafenib 0.003 | [8] -0.011 | alisertib -0.015 | [9] 0.051 | gefitinib 0.014

AZGP1 (UniProt P25311)
inactive: vemurafenib -0.011 | [1] -0.267 | barasertib -0.211 | [2] 0 | volasertib -0.238 | [3] -0.059 | [4] 0.217 | [5] -0.142 | saracatinib 0.117 | sotrastaurin -0.177 | alvocidib 0.128 | Tubastatin A 0.396 | [6] -0.225 | defactinib 0.104 | [7] -0.302 | encorafenib 0.035 | [8] 0.958 | alisertib -0.223 | [9] -0.228 | gefitinib 0.203

ATG101 (UniProt Q9BSB4)
inactive: vemurafenib 0.002 | [1] 0.03 | barasertib 0.081 | [2] 0.048 | volasertib 0.026 | [3] -0.025 | [4] -0.032 | [5] -0.039 | saracatinib 0.069 | sotrastaurin 0.005 | alvocidib 0.03 | Tubastatin A -0.018 | [6] 0.09 | defactinib 0.031 | [7] -0.014 | encorafenib 0.081 | [8] -0.057 | alisertib 0.068 | [9] -0.011 | gefitinib -0.016

B2M (UniProt P61769)
inactive: vemurafenib 0.053 | [1] -0.037 | barasertib 0.126 | [2] 0 | volasertib 0.025 | [3] -0.033 | [4] -0.029 | [5] -0.082 | saracatinib 0.054 | sotrastaurin -0.051 | alvocidib 0.035 | Tubastatin A 0.02 | [6] 0.061 | defactinib -0.02 | [7] 0.014 | encorafenib -0.002 | [8] -0.034 | alisertib 0.044 | [9] 0.006 | gefitinib -0.055

ATP6V0D1 (UniProt P61421)
inactive: vemurafenib -0.037 | [1] -0.006 | barasertib 0.186 | [2] -0.033 | volasertib 0.043 | [3] 0.014 | [4] -0.052 | [5] -0.025 | saracatinib -0.028 | sotrastaurin -0.021 | alvocidib 0.013 | Tubastatin A 0.092 | [6] -0.004 | defactinib 0.113 | [7] -0.044 | encorafenib 0.017 | [8] -0.039 | alisertib 0.055 | [9] -0.041 | gefitinib -0.096

ATP23 (UniProt Q9Y6H3)
inactive: vemurafenib 0.03 | [1] 0.031 | barasertib 0.062 | [2] 0.022 | volasertib 0.008 | [3] 0.077 | [4] 0.162 | [5] -0.251 | saracatinib 0.057 | sotrastaurin 0.038 | alvocidib 0.117 | Tubastatin A -0.116 | [6] 0.042 | defactinib 0.029 | [7] 0.064 | encorafenib 0.01 | [8] 0.048 | alisertib -0.076 | [9] -0.037 | gefitinib 0.001
